Data as given in PubChem BioAssay AID1671195 (Yale University, 2021).

Purpose: 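Knockdowns that increase or decrease uptake of fluorescent LDL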 (primary screen)
System: human Huh7 hepatoma cells
Reagents: siRNA pool against human genes, 18 nM
Duration: about 2 to 2.5 days of knockdown, then 8 h LDL uptake
Challenge: DiI-labelled LDL at 30 µg/ml for 8 h, in lipoprotein-deficient serum medium
Measurement: 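Fluorescent LDL signal imaged in cells, scaled to the plate median, robust z-score for each replicate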
Reading the numbers: robust z-score: higher = more LDL uptake after knockdown
Rule for the call: 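a gene counts as active if at least two replicate z-scores exceed ±2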
Here is an unselected part of about 22,000 reagents tested. In the full data, about 1,510 (6.9%) are marked active. 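Active includes knockdowns raising or lowering LDL uptake; positive z-scores mean more uptake, negative mean less.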

gene | robust z-score, replicate 1 | robust z-score, replicate 2 | robust z-score, replicate 3 | Call
AURKAIP1 | -0.489 | -1.84 | -1.1 | inactive
GNB1 | 0.543 | 0.282 | 0.435 | inactive
LOC391405 (retired record) | 0.706 | 0.815 | 0.722 | inactive
TSSK4 | -0.883 | -1.12 | -0.747 | inactive
LOC439993 (retired record) | -0.397 | 0.0182 | -0.736 | inactive
HPSE2 | 0.152 | 0.152 | 0.167 | inactive
LOC441648 (retired record) | -0.551 | -0.366 | -0.0975 | inactive
CDC20 | 1.35 | 0.793 | 1.34 | inactive
BGN | -1.23 | -1.11 | 0.827 | inactive
LOC440542 (retired record) | -0.912 | -0.983 | -0.417 | inactive
KAT7 | 1.89 | 0.85 | 3.44 | inactive
IFNAR1 | 0.607 | 0.554 | 0.379 | inactive
FASTKD4 | -0.973 | -0.544 | -0.856 | inactive
HPS6 | -0.811 | -0.784 | -1.07 | inactive
PGK2 | -0.025 | 1.31 | 0.813 | inactive
EID2 | -1.36 | -1.24 | -1.2 | inactive
TAF10 | 0.426 | -0.0375 | 1.1 | inactive
ATG7 | -0.337 | -0.231 | -0.348 | inactive
PCDHGA7 | 1.06 | 0.832 | 1 | inactive
IKBKB | -0.846 | -0.304 | -0.871 | inactive
HSP90AA1 | 2.37 | 3.22 | 2.85 | active
FAM135A | 0.00108 | -0.912 | 1.18 | inactive
HELZ | 1.06 | 1.01 | 0.931 | inactive
RBP4 | -0.725 | -0.496 | -0.791 | inactive
SLC26A7 | -0.557 | -0.929 | -0.382 | inactive
FKBP9 | -0.415 | 0.011 | -0.384 | inactive
MICB | -0.332 | -0.0363 | -0.034 | inactive
MIR600HG | -0.292 | 0.159 | 0.254 | inactive
LOC441112 (retired record) | 0.36 | -0.0934 | -0.297 | inactive
FOXN3-AS1 | -0.309 | -0.573 | -0.33 | inactive
EIF2AK3 | -0.273 | 0.182 | -0.516 | inactive
LY6G6D | -1.35 | -0.796 | -0.761 | inactive
RPL41 | 1.25 | 1.52 | 1.46 | inactive
EEF2 | -0.716 | -0.522 | -0.579 | inactive
NME4 | -2.05 | -0.958 | -2.28 | active
SNX31 | 0.0854 | 0.436 | -0.399 | inactive
VPS8 | 2.04 | 0.283 | 0.376 | inactive
CNOT8 | -0.308 | -0.45 | -0.578 | inactive
DOCK3 | -1.69 | -0.662 | -1.65 | inactive

Already shown: 9 of the entries above.
gene | robust z-score, replicate 1 | robust z-score, replicate 2 | robust z-score, replicate 3 | Call
TSSK4 | -0.883 | -1.12 | -0.747 | inactive
LOC439993 (retired record) | -0.397 | 0.0182 | -0.736 | inactive
HPSE2 | 0.152 | 0.152 | 0.167 | inactive
LOC441648 (retired record) | -0.551 | -0.366 | -0.0975 | inactive
CDC20 | 1.35 | 0.793 | 1.34 | inactive
BGN | -1.23 | -1.11 | 0.827 | inactive
LOC440542 (retired record) | -0.912 | -0.983 | -0.417 | inactive
KAT7 | 1.89 | 0.85 | 3.44 | inactive
IFNAR1 | 0.607 | 0.554 | 0.379 | inactive

The list goes on.
gene | robust z-score, replicate 1 | robust z-score, replicate 2 | robust z-score, replicate 3 | Call
ELOB | -0.399 | -0.558 | -0.299 | inactive
TRIB2 | 0.651 | 0.54 | 1.38 | inactive
TAF1L | -0.791 | -0.721 | -0.637 | inactive
MARCKSL1 | 0.282 | 0.0364 | 0.484 | inactive
COMMD4 | -0.455 | -1.22 | -0.417 | inactive
TDRKH | -2.42 | 0.385 | 1.08 | inactive
MAP2K3 | -0.243 | -0.944 | -0.557 | inactive
RPL5P18 | -0.923 | -0.554 | -0.624 | inactive
PCED1B | 0.399 | 0.747 | 0.843 | inactive
SUCLG2 | -0.384 | -0.153 | -0.526 | inactive
SIGLEC5 | 1.12 | -0.127 | 0.473 | inactive
APOBEC3A | -1.1 | -1.51 | -1.4 | inactive
AMBN | -0.587 | -1.53 | -1.58 | inactive
NLK | 0.835 | -0.623 | -0.062 | inactive
GLRA4 | 1.46 | 0.887 | 0.563 | inactive
NPPA | 0.638 | -0.365 | 0.611 | inactive
PLSCR2 | -1.13 | -0.283 | 0.0245 | inactive
NELL1 | -0.955 | 1.1 | -0.684 | inactive
SETD3 | 0.0218 | -0.00588 | -0.405 | inactive
GPAT2 | 0.0278 | 0.0846 | -0.976 | inactive
METTL2B | -0.156 | -0.203 | -0.143 | inactive
RPGRIP1L | 0.849 | 2.68 | 0.395 | inactive
COCH | 0.526 | 0.374 | -0.392 | inactive
MUC19 | 0.287 | 0.566 | 0.34 | inactive
TAPBP | -0.671 | -0.751 | -0.624 | inactive
MPHOSPH9 | 1.63 | -0.0583 | -0.199 | inactive
RBCK1 | 1.91 | 0.229 | 3.84 | active
LOC400602 (retired record) | 2.51 | 1.86 | 2.18 | active
GPR156 | -1.32 | -1.36 | -1.68 | inactive
